Measurements reported in PubChem BioAssay AID256 (DTP/NCI, 2004).
The list shows only some results of the screen, not a fair sample: it is rich in T/C values a quarter to a half above the control, in often repeated tests (any T/C) and in doses without a T/C. Other doses and runs of a compound stand elsewhere. T/C gives the treated animals as a percentage of the vehicle group. Some doses have a count of surviving animals in place of a T/C: the source files T/C as zero there, which appears to mark a toxic dose or a test without result, not a measured value. Some doses without a T/C left all or most animals alive at the check, yet need not have been tolerated: survival well below the control is almost never listed, so the zero probably covers shortened survival too. Survivors were counted at the toxicity check, usually on the fifth day, unless a day is given; later deaths do not show. Schedule codes are those of the source, taken here to give the interval after Q, in days (D) or hours (H), and the number of doses after X. Some entries hold several experiments; the results are listed from low to high. Where survival is the endpoint, this PubChem deposit counts one and a half times the control or more as active, and values a quarter to a half above the control carry no call in these data; other NCI protocols may use other cut-offs. Some T/C values carry the count of animals alive at the toxicity check (mostly the fifth day); without a count, all were alive then.

Test system: CD2F1 mice, L1210 leukemia ip, survival T/C
Experiment: NCI In Vivo Anticancer Drug Screen. Data for tumor model L1210 Leukemia (intraperitoneal) in CD2F1 (CDF1) mice
Settings: higher T/C = longer survival
Outline: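 Implant tumor; dose compound or vehicle; measure endpoint in both groups; report treated divided by control.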

[1] = T/C endpoint: mean survival time, dose: 200.0 mg/kg/injection, schedule: Q04DX003 (ip), vehicle: saline
[2] = T/C endpoint: median survival time, dose: 12.5 mg/kg/injection, schedule: Q01DX009 (ip), vehicle: Klucel (hydroxypropylcellulose) (HPC)
[3] = T/C endpoint: mean survival time, dose: 400.0 mg/kg/injection, schedule: Q04DX002 (ip), vehicle: saline with Tween-80

COc1ccc2c(c1)C1C=[S+]c3ccccc3C1N2 (stereo unspecified)
survivor count (T/C endpoint: mean survival time, dose: 100.0 mg/kg/injection, schedule: Q04DX003 (ip), vehicle: saline): 5 of 6 | survivor count [1]: 1 of 6 | survivor count (T/C endpoint: mean survival time, dose: 400.0 mg/kg/injection, schedule: Q04DX003 (ip), vehicle: saline): 0 of 6

CNCC(O)c1ccc(O)cc1 (stereo unspecified)
survivor count (T/C endpoint: mean survival time, dose: 400.0 mg/kg/injection, schedule: Q01DX009 (ip), vehicle: saline): 3 of 6

Nc1ccc(-c2ccccc2-c2ccccc2)cc1
survivor count (T/C endpoint: mean survival time, dose: 400.0 mg/kg/injection, schedule: Q01DX009 (ip), vehicle: acetone): 2 of 6

[Cl][Pt+2][Cl].[NH-]CC1(C[NH-])CCC1
T/C (T/C endpoint: mean survival time, dose: 3.12 mg/kg/injection, schedule: Q04DX003 (ip), vehicle: saline): 144 % of control | T/C (T/C endpoint: mean survival time, dose: 12.5 mg/kg/injection, schedule: Q04DX003 (ip), vehicle: saline): 125 % of control | T/C (T/C endpoint: mean survival time, dose: 25.0 mg/kg/injection, schedule: Q04DX003 (ip), vehicle: saline): 132 % of control | survivor count [1]: 4 of 6 | T/C (T/C endpoint: median survival time, dose: 0.4 mg/kg/injection, schedule: Q01DX009 (ip), vehicle: Klucel (hydroxypropylcellulose) (HPC)): 125 % of control | T/C (T/C endpoint: median survival time, dose: 0.78 mg/kg/injection, schedule: Q01DX009 (ip), vehicle: Klucel (hydroxypropylcellulose) (HPC), evaluated on day 30): 118 [9 of 10 alive], 128, 165 % of control | T/C (T/C endpoint: median survival time, dose: 0.78 mg/kg/injection, schedule: Q01DX009 (ip), vehicle: Klucel (hydroxypropylcellulose) (HPC), evaluated on day 60): 213 % of control | T/C (T/C endpoint: median survival time, dose: 0.8 mg/kg/injection, schedule: Q01DX009 (ip), vehicle: Klucel (hydroxypropylcellulose) (HPC)): 147 % of control | T/C (T/C endpoint: median survival time, dose: 1.56 mg/kg/injection, schedule: Q01DX009 (ip), vehicle: Klucel (hydroxypropylcellulose) (HPC), evaluated on day 30): 185, 211, 259 % of control | T/C (T/C endpoint: median survival time, dose: 1.56 mg/kg/injection, schedule: Q01DX009 (ip), vehicle: Klucel (hydroxypropylcellulose) (HPC), evaluated on day 60): 426 % of control | T/C (T/C endpoint: median survival time, dose: 6.0 mg/kg/injection, schedule: Q01DX009 (ip), vehicle: carboxymethylcellulose (CMC)): 131 % of control | T/C (T/C endpoint: median survival time, dose: 6.25 mg/kg/injection, schedule: Q01DX009 (ip), vehicle: Klucel (hydroxypropylcellulose) (HPC), evaluated on day 30): 116, 160, 188 % of control [9 of 10 alive] | T/C (T/C endpoint: median survival time, dose: 6.25 mg/kg/injection, schedule: Q01DX009 (ip), vehicle: Klucel (hydroxypropylcellulose) (HPC), evaluated on day 60): 256 % of control | T/C (T/C endpoint: median survival time, dose: 6.25 mg/kg/injection, schedule: Q01DX009 (ip), vehicle: suspension in saline): 125 % of control | T/C [2]: 91 and 158 % of control | survivor count [2]: 9 of 10 and 10 of 10 | survivor count (T/C endpoint: median survival time, dose: 12.5 mg/kg/injection, schedule: Q01DX009 (ip), vehicle: suspension in saline): 5 of 6 | survivor count (T/C endpoint: median survival time, dose: 25.0 mg/kg/injection, schedule: Q01DX009 (ip), vehicle: Klucel (hydroxypropylcellulose) (HPC)): 1 of 6 | survivor count (T/C endpoint: median survival time, dose: 25.0 mg/kg/injection, schedule: Q01DX009 (ip), vehicle: suspension in saline): 0 of 6 | survivor count (T/C endpoint: median survival time, dose: 50.0 mg/kg/injection, schedule: Q01DX009 (ip), vehicle: suspension in saline): 0 of 6 | survivor count (T/C endpoint: median survival time, dose: 100.0 mg/kg/injection, schedule: Q01DX009 (ip), vehicle: suspension in saline): 0 of 6 | survivor count (T/C endpoint: median survival time, dose: 200.0 mg/kg/injection, schedule: Q01DX009 (ip), vehicle: suspension in saline): 0 of 6

CCCCCCCCCCCCOCCOCCOCCOCCO
survivor count [3]: 1 of 3

S=C(NCCCCCNC(=S)Nc1ccccc1)Nc1ccccc1
survivor count (T/C endpoint: mean survival time, dose: 400.0 mg/kg/injection, schedule: Q04DX003 (ip), vehicle: acetone): 3 of 6

CN1C(=O)C2(Cc3cn(C45CC67SSC(CO)(C(=O)N6C4Nc4ccccc45)N(C)C7=O)c4ccccc34)SSC1(CO)C(=O)N2C (stereo unspecified)
survivor count (T/C endpoint: mean survival time, dose: 2.5 mg/kg/injection, schedule: Q01DX009 (ip), vehicle: Klucel (hydroxypropylcellulose) (HPC)): 1 of 6 | survivor count (T/C endpoint: mean survival time, dose: 5.0 mg/kg/injection, schedule: Q01DX009 (ip), vehicle: Klucel (hydroxypropylcellulose) (HPC)): 0 of 6 | survivor count (T/C endpoint: mean survival time, dose: 10.0 mg/kg/injection, schedule: Q01DX009 (ip), vehicle: Klucel (hydroxypropylcellulose) (HPC)): 0 of 6 | survivor count (T/C endpoint: mean survival time, dose: 20.0 mg/kg/injection, schedule: Q01DX009 (ip), vehicle: Klucel (hydroxypropylcellulose) (HPC)): 0 of 6

Cc1ccc(OC(=O)Nc2cccc3ccccc23)cc1C
survivor count [3]: 3 of 3

Cc1ccc(N=Nc2sc(N)nc2-c2cccc([N+](=O)[O-])c2)cc1
survivor count (T/C endpoint: mean survival time, dose: 400.0 mg/kg/injection, schedule: Q01DX001 (ip), vehicle: saline with Tween-80): 0 of 6

O=[N+]([O-])c1ccccc1CSc1ncnc2nc[nH]c12
T/C (T/C endpoint: mean survival time, dose: 200.0 mg/kg/injection, schedule: Q04DX003 (ip), vehicle: saline with Tween-80): 134 and 141 % of control | survivor count (T/C endpoint: mean survival time, dose: 300.0 mg/kg/injection, schedule: Q04DX003 (ip), vehicle: saline with Tween-80): 6 of 6

CN(C)N=Nc1c(F)cc(F)cc1F
T/C (T/C endpoint: mean survival time, dose: 100.0 mg/kg/injection, schedule: Q01DX009 (ip), vehicle: saline with Tween-80): 131 % of control | survivor count (T/C endpoint: mean survival time, dose: 400.0 mg/kg/injection, schedule: Q01DX009 (ip), vehicle: saline with Tween-80): 2 of 6

CO[C@@]12[C@@H]3N[C@@H]3CN1C1=C(C(=O)C(NCc3ccco3)=C(C)C1=O)[C@@H]2COC(N)=O
T/C (T/C endpoint: mean survival time, dose: 6.0 mg/kg/injection, schedule: Q01DX001 (ip), vehicle: distilled water + Tween-80): 133 % of control | T/C (T/C endpoint: mean survival time, dose: 12.0 mg/kg/injection, schedule: Q01DX001 (ip), vehicle: distilled water + Tween-80): 127 % of control
